Data set [1] is described as follows: Fabric damage test with bleach powder bundled in swatch. Particulars: equal chlorine basis (50 ppm chlorine in 64 liter wash), 45° C. water 30 minutes, 75° C. drying.
Experiment in data set [2]: as above
Conditions: equal chlorine basis (50 ppm chlorine in 64 liter wash), 45° C. water 30 minutes, 75° C. drying. The source holds these as a separate data set.

Some results are limits rather than exact numbers.

On to `O=c1n(Cl)c(=O)n(Cl)c(=O)n1Cl` [TCCA, trichloroisocyanuric acid], for which the “cycles until holes in silk swatch” value in data set [1] was found to be 7 cycles. For the same compound, the “cycles until holes in wool swatch” value in data set [2] was 4 cycles.
In the case of “monochloro-5,5-dimethyl hydantoin [MCDMH]”, the “cycles until holes in silk swatch” value in data set [1] is listed as greater than 23 cycles. Moreover, the “cycles until holes in wool swatch” value in data set [2] was greater than 23 cycles.
Regarding `O=c1nc([O-])n(Cl)c(=O)n1Cl.[Na+]` [DCCA, sodium dichloroisocyanurate], the “cycles until holes in silk swatch” value in data set [1] is given as 12 cycles. Further, the “cycles until holes in wool swatch” value in data set [2] came to 7 cycles.

The record behind these values is patent US20030104965A1, “Laundry sanitizer containing partially halogenated hydantoins” (Lonza Inc., priority 2001, published 2003).
